Publication PMC7176845
Results are given in words; binding and its absence hold for the method and conditions named. Binding seen in cells or lysates may run through a third protein. Some results given as binding are weak or reduced against the parent protein; the word gives no strength. Each block holds one substance with its values, some of them ahead of it.

The chains behind the UniProt entries cited, without tags or fusion partners. Where a name states a change or a piece, a line headed by the entry shows the natural chain unless it says otherwise.
UniProt Q9HAU4: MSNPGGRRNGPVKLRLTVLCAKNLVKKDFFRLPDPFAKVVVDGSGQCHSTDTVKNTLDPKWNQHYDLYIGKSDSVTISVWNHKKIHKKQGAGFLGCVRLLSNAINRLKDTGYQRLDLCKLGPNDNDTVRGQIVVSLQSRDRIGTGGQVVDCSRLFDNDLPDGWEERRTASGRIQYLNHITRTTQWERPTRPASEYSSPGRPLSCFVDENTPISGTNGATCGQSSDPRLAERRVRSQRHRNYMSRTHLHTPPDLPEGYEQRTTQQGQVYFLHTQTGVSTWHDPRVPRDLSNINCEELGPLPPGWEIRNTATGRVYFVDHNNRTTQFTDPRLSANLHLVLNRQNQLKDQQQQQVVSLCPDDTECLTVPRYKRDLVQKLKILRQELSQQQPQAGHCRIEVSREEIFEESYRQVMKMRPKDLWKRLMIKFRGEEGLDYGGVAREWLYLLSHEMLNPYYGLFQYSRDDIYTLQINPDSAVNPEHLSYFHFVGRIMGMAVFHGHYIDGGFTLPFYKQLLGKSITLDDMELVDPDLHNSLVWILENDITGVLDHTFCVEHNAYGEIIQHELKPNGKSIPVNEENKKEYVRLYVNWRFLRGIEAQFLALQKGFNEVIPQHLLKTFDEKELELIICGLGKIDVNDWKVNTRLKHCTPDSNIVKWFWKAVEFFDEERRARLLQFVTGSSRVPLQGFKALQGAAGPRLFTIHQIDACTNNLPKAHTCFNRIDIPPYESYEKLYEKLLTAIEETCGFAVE
UniProt P09874: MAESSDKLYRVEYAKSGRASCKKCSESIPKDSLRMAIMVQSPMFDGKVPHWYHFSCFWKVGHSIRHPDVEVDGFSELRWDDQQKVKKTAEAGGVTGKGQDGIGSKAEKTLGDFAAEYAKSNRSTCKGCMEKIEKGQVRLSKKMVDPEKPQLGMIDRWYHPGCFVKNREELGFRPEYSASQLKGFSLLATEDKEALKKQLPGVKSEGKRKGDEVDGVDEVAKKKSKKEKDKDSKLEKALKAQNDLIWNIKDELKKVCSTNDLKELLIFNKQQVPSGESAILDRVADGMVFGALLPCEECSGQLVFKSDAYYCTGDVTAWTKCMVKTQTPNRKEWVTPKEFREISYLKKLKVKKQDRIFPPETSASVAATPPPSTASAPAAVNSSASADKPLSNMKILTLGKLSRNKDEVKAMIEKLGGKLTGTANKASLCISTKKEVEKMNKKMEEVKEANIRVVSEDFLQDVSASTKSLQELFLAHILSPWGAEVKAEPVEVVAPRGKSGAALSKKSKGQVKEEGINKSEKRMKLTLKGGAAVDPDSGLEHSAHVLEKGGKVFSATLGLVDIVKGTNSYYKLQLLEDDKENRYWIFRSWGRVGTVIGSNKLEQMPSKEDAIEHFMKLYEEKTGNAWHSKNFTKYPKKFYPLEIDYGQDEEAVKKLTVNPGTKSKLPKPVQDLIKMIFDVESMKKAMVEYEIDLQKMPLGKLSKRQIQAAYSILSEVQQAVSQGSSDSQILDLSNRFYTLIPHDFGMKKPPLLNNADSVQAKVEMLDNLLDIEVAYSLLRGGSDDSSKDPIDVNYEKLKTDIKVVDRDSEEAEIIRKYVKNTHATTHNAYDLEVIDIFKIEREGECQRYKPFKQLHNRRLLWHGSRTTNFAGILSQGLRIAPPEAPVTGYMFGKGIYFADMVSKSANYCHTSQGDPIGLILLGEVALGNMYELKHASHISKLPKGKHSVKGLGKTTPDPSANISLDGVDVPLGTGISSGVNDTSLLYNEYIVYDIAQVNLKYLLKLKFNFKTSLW

Tests used:
[1] = biological target: Smurf2 (human (endogenous in HUVEC and 293T)) (UniProt Q9HAU4); experiment: co-IP; endogenous proteins; anti-Smurf2 or anti-PARP1 antibody or control IgG with Protein A/G magnetic beads, 4°C 12 h, lysis buffer with 1% NP-40, 137 mmol/L NaCl, pH 7.8; blot with anti-PARP1 or anti-Smurf2; HUVEC with or without H2O2 500 μmol/L 12 h (interaction enhanced by H2O2)
Flag‐Smurf2 = Flag‐Smurf2 (UniProt Q9HAU4); experiment: co-IP; 293T cells co-transfected with Flag-Smurf2 (or C716G) and Myc-PARP1 for 48 h; anti-Flag IP and anti-Myc blot, or anti-Myc IP and anti-Flag blot (with MG132 25 μmol/L or DMSO 8 h; interaction enhanced by MG132)
Flag‐Smurf2 (C716G) = Flag‐Smurf2 (C716G) (UniProt Q9HAU4); experiment: as above
[2] = biological target: poly(ADP‐ribose) polymerase‐1 (PARP1) (human (endogenous in HUVEC and 293T)) (UniProt P09874); experiment: co-IP; endogenous proteins; anti-Smurf2 or anti-PARP1 antibody or control IgG with Protein A/G magnetic beads, 4°C 12 h, lysis buffer with 1% NP-40, 137 mmol/L NaCl, pH 7.8; blot with anti-PARP1 or anti-Smurf2; HUVEC with or without H2O2 500 μmol/L 12 h (interaction enhanced by H2O2)
Myc‐PARP1 = Myc‐PARP1 (UniProt P09874); experiment: co-IP; 293T cells co-transfected with Flag-Smurf2 (or C716G) and Myc-PARP1 for 48 h; anti-Flag IP and anti-Myc blot, or anti-Myc IP and anti-Flag blot (with MG132 25 μmol/L or DMSO 8 h; interaction enhanced by MG132)

- binding [1]: binds
Substance: poly(ADP‐ribose) polymerase‐1 (PARP1) (from UniProt P09874 1-1014)

- binding (Flag‐Smurf2): binds
- binding (Flag‐Smurf2 (C716G)): binds
Substance: Myc‐PARP1 (from UniProt P09874 1-1014)

- binding [2]: binds
Substance: Smurf2 (from UniProt Q9HAU4 1-748)

- binding (Myc‐PARP1): binds
Substance: Flag‐Smurf2 (from UniProt Q9HAU4 1-748)
